Literature values, collected in patent US20210236593A1, “METHODS OF SUPPORTING WEIGHT MAINTENANCE BY DECREASING THE ACTIVITY OF FAM46A” (SOCIETE DES PRODUITS NESTLE S.A., priority 2016, published 2021).
At least one compound was matched to its structure with a doubt left.

Test system: FAM46A
Settings: effect of the chemical on FAM46A expression

Q: For `CCOC(=O)C(C)(C)Oc1ccc(Cl)cc1` [Clofibrate], which “Interaction Actions” value is on record?
A: Decreases expression
